From the supplement of paper PMC10849652
The list shows a part of the results.

By UniProt entry, the sequences of proteins in these tests, tags left out. Where a name states a change or a piece, a line headed by the entry shows the natural chain unless it says otherwise.
UniProt Q9UK76: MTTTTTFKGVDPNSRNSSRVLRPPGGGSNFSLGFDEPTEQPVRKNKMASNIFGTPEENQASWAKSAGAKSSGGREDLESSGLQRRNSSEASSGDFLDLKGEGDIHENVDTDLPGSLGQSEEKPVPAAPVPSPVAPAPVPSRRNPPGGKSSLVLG
UniProt Q8N5M9: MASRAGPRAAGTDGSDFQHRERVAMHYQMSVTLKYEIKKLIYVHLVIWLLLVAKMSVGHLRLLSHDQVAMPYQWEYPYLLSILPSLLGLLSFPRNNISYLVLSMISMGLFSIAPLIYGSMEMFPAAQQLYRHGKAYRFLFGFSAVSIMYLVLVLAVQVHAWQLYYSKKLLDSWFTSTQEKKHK
UniProt Q96AT1: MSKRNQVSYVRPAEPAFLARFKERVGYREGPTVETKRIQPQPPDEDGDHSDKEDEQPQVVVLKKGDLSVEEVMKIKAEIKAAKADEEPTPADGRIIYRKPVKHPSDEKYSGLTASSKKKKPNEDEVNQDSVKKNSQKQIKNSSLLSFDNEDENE
UniProt Q02241: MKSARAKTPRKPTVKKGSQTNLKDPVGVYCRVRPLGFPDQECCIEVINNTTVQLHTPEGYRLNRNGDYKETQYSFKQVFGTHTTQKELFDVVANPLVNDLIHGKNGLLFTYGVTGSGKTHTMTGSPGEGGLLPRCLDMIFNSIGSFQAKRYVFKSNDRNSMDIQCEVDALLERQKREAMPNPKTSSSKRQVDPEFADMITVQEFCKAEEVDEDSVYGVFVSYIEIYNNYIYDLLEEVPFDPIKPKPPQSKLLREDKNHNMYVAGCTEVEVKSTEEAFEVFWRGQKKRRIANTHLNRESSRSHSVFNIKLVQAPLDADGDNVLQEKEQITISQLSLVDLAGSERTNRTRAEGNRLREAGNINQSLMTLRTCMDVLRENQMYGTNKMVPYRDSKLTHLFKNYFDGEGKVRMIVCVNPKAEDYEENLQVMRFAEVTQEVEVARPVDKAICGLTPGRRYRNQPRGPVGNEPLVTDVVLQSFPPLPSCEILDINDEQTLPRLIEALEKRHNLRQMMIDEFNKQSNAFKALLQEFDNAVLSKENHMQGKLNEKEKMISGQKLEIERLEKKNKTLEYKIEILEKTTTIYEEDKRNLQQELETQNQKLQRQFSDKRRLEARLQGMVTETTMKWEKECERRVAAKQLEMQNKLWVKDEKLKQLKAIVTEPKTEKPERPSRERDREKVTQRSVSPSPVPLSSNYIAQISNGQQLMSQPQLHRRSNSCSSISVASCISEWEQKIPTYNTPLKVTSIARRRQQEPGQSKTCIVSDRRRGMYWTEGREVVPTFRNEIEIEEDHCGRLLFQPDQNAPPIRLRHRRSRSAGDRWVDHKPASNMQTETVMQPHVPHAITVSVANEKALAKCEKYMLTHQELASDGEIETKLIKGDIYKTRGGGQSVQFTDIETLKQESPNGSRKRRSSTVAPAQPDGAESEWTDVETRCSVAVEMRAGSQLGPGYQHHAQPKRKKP
UniProt O00139: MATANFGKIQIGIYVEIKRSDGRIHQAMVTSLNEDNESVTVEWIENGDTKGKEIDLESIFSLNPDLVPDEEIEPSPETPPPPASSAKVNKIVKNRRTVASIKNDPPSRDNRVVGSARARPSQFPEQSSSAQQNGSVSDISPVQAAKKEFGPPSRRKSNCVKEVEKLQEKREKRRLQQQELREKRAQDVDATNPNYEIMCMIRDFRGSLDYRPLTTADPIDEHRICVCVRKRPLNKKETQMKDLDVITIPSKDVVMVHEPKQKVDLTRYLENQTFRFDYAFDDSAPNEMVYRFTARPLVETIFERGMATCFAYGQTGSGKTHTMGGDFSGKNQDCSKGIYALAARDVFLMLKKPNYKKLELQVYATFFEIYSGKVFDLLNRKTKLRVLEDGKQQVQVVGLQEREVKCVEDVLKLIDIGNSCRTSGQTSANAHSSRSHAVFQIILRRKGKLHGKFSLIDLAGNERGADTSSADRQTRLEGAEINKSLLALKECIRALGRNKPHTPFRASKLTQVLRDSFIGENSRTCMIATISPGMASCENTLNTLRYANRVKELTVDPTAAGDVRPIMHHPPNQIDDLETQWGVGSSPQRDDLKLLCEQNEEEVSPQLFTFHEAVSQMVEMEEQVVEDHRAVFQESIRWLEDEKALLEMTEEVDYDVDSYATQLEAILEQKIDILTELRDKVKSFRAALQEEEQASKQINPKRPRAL
UniProt Q8IZA0: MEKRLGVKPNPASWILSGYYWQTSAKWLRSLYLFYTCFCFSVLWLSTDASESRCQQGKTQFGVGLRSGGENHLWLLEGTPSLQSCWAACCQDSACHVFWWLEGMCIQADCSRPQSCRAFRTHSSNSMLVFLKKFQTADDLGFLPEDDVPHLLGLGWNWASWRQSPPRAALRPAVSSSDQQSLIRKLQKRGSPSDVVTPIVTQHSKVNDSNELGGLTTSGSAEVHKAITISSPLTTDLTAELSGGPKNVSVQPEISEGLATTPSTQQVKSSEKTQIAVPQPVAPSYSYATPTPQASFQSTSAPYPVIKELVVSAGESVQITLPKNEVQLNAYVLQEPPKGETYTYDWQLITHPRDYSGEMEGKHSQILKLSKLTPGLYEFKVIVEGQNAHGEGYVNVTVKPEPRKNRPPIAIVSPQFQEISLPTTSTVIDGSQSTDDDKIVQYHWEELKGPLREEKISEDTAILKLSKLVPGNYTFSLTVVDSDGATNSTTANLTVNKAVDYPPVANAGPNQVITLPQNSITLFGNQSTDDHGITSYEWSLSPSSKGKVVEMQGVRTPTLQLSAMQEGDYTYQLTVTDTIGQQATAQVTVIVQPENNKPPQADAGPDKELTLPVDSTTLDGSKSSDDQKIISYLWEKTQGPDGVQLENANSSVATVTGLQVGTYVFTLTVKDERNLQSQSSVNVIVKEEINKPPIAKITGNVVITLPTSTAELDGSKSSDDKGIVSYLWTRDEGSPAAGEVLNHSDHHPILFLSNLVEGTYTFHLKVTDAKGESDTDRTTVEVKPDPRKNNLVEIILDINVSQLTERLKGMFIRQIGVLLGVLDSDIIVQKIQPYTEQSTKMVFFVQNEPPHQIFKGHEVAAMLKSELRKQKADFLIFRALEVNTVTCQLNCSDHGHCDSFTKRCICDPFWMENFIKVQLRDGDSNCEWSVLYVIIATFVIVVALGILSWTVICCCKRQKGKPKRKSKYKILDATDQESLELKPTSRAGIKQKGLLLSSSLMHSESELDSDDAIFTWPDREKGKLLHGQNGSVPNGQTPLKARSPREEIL
UniProt Q13303: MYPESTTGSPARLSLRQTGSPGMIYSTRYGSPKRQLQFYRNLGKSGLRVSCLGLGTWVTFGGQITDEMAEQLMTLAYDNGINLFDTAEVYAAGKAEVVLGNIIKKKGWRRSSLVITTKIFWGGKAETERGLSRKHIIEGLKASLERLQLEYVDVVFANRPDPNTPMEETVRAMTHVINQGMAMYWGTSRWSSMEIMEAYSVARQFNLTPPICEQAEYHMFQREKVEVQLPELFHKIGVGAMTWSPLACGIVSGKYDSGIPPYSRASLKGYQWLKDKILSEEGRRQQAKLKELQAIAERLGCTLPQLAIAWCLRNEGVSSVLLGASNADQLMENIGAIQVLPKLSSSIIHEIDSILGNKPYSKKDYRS
UniProt Q06136: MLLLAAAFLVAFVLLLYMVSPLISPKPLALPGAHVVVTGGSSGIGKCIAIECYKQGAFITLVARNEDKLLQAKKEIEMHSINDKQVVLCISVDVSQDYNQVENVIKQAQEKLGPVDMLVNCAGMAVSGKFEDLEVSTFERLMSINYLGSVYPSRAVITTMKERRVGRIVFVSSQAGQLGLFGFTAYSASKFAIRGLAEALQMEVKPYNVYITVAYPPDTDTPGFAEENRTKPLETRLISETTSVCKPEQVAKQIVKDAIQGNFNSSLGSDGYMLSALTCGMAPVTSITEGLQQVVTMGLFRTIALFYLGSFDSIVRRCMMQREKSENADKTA
UniProt Q14667: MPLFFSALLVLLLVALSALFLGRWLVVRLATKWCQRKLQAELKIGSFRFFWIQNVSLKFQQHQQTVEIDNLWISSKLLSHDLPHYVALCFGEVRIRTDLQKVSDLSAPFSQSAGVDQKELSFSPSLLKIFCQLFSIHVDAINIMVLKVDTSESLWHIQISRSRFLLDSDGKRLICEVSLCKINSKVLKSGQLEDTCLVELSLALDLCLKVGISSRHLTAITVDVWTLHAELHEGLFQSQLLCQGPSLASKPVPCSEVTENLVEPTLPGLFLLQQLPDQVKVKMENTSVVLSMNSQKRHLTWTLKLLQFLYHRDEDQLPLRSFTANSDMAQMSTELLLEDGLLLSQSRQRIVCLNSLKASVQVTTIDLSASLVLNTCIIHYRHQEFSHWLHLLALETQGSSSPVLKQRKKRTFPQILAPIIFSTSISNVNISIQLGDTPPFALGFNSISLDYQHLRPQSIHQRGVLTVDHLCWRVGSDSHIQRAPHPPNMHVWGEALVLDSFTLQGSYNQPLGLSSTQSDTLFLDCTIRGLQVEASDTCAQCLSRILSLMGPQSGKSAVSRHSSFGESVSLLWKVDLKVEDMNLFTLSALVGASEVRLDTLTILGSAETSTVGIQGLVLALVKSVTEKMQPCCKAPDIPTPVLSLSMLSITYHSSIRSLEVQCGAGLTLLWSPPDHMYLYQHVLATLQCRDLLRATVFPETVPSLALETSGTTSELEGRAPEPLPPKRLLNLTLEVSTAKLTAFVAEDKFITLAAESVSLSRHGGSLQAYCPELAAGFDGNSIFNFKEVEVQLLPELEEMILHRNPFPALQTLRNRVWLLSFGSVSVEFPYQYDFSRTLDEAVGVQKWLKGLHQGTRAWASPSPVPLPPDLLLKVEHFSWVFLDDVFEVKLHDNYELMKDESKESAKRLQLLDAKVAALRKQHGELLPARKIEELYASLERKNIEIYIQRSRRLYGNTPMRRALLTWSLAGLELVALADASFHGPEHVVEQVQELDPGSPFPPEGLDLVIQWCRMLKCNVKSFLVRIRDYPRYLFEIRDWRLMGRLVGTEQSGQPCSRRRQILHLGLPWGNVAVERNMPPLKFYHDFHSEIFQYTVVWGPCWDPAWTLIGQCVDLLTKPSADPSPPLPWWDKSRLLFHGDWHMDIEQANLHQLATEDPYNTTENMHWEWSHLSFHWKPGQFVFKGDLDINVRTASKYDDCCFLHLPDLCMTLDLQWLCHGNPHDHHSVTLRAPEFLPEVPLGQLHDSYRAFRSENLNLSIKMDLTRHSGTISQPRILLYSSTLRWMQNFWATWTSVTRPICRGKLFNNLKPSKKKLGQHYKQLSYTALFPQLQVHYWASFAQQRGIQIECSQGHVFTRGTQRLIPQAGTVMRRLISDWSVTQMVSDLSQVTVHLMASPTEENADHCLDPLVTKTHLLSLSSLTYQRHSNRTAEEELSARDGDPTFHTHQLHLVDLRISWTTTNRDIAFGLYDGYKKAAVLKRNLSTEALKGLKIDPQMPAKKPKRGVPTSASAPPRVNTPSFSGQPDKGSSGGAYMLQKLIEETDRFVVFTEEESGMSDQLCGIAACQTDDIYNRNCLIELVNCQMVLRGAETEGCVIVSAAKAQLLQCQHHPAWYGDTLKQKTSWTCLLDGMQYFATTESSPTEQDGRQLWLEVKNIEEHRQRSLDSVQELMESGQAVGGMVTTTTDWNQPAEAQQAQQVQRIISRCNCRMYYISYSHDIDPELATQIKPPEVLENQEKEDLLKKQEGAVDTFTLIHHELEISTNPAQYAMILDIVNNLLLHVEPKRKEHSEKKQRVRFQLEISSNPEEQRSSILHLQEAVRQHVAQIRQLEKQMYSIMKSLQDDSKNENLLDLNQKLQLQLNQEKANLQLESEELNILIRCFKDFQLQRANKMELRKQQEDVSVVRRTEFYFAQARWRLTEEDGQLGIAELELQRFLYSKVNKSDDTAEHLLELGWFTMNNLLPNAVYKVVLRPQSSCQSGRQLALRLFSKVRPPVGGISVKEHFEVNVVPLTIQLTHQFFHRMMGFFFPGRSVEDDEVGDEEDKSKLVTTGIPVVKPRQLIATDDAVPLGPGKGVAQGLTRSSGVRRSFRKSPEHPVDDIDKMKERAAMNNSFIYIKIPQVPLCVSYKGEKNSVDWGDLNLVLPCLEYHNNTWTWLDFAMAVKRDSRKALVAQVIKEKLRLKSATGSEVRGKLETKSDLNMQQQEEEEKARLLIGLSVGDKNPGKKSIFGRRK
UniProt Q7L273: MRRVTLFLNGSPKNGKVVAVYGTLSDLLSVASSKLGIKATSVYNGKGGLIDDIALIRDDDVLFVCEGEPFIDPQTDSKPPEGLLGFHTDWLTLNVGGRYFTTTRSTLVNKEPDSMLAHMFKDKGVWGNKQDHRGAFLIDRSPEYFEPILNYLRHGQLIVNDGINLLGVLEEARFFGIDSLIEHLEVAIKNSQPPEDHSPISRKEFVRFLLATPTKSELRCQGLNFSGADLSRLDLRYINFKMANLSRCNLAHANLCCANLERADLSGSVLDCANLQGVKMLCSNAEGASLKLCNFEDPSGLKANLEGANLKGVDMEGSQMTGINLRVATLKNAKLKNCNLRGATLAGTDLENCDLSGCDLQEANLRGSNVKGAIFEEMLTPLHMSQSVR

These targets were tested with CC1=C(C2=C(C=C1)C(=O)C3=CC=CC=C3N2CCCN)C (assay: log2 fold change, soluble protein after heating vs DMSO (PISA); higher = thermal stabilisation; K562 cells, 10 uM, 30 min; active = over 0.2 and 3.5 SD of the protein, either way, in both replicates (recomputed)).
Method in brief: (§1)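 Thermal stability values are relative to control samples and come from duplicates. They are expressed as log2 fold changes. For measurement, K562 cells (2×10^6 cells/mL) received 10 μM compound for 30 min, and aliquots were heated for 3 min over 48°C-58°C, pooled, and extracted at 4°C in PBS with 0.5% NP-40. Soluble protein, the supernatant after 21,000xg for 90 min, was quantified by TMTpro 16plex LC-MS/MS with equalised channel sums.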

Row | Target | log2 fold change
1 | KATNB1 (UniProt Q9BVA0) | inactive: 0.002
2 | KMT2D isoform 3 (UniProt O14686) | inactive: -0.004
3 | KCMF1 (UniProt Q9P0J7) | inactive: 0.076
4 | JPT1 (UniProt Q9UK76) | inactive: 0.027
5 | JUND (UniProt P17535) | inactive: -0.008
6 | JMJD1C (UniProt Q15652) | inactive: -0.004
7 | KDM8 isoform 3 (UniProt Q8N371) | inactive: 0.048
8 | JAGN1 (UniProt Q8N5M9) | inactive: 0.201
9 | KIDINS220 (UniProt Q9ULH0) | inactive: 0.046
10 | KCTD15 (UniProt Q96SI1) | inactive: 0.014
11 | KCTD3 (UniProt Q9Y597) | inactive: -0.006
12 | KIAA1143 (UniProt Q96AT1) | inactive: -0.047
13 | KHK isoform 2 (UniProt P50053) | inactive: -0.006
14 | KIF23 (UniProt Q02241) | inactive: 0
15 | KIAA1522 isoform 2 (UniProt Q9P206) | inactive: -0.084
16 | KLF3 (UniProt P57682) | inactive: -0.141
17 | KIF2A isoform 4 (UniProt O00139) | inactive: 0.218

Row | Target | log2 fold change
18 | KIF5A (UniProt Q12840) | inactive: 0.013
19 | IVNS1ABP (UniProt Q9Y6Y0) | inactive: 0.029
20 | KPNA3 (UniProt O00505) | inactive: -0.179
21 | KIAA0319L (UniProt Q8IZA0) | inactive: 0.003
22 | KCNAB2 (UniProt Q13303) | inactive: 0.031
23 | KAZN isoform 3 (UniProt Q674X7) | inactive: 0.043
24 | KNSTRN (UniProt Q9Y448) | inactive: 0.032
25 | KDM5C (UniProt P41229) | inactive: -0.097
26 | KLC1 isoform 6 (UniProt Q07866) | inactive: 0.021
27 | KBTBD2 (UniProt Q8IY47) | inactive: 0.008
28 | KLHL11 (UniProt Q9NVR0) | inactive: -0.024
29 | KDSR (UniProt Q06136) | inactive: 0.008
30 | KIF5B (UniProt P33176) | inactive: 0.071
31 | KIAA0100 (UniProt Q14667) | inactive: 0.08
32 | KHSRP (UniProt Q92945) | inactive: 0.027
33 | KCTD9 (UniProt Q7L273) | inactive: -0.056

The targets below were run with CC1=C(C=C(C=C1)NC(=O)C2=CC(=CC=C2)C(C)(C)C#N)NC3=CC4=C(C=C3)N=CN(C4=O)C in the same assay as above.
Method in brief: as §1

Row | Target | log2 fold change
34 | KATNB1 (UniProt Q9BVA0) | inactive: -0.034
35 | KMT2D isoform 3 (UniProt O14686) | inactive: -0.102
36 | KCMF1 (UniProt Q9P0J7) | inactive: -0.059
37 | JPT1 (UniProt Q9UK76) | inactive: 0.007
38 | JUND (UniProt P17535) | inactive: -0.004
39 | JMJD1C (UniProt Q15652) | inactive: 0.022
40 | KDM8 isoform 3 (UniProt Q8N371) | inactive: -0.013
41 | JAGN1 (UniProt Q8N5M9) | inactive: 0.012
42 | KIDINS220 (UniProt Q9ULH0) | inactive: -0.012
43 | KCTD15 (UniProt Q96SI1) | inactive: -0.093
44 | KCTD3 (UniProt Q9Y597) | inactive: -0.144
45 | KIAA1143 (UniProt Q96AT1) | inactive: -0.139
46 | KHK isoform 2 (UniProt P50053) | inactive: 0.007
47 | KIF23 (UniProt Q02241) | inactive: -0.039
48 | KIAA1522 isoform 2 (UniProt Q9P206) | inactive: -0.035
49 | KLF3 (UniProt P57682) | inactive: -0.071
50 | KIF2A isoform 4 (UniProt O00139) | inactive: -0.013

Row | Target | log2 fold change
51 | KIF5A (UniProt Q12840) | inactive: -0.016
52 | IVNS1ABP (UniProt Q9Y6Y0) | inactive: -0.021
53 | KPNA3 (UniProt O00505) | inactive: 0.089
54 | KIAA0319L (UniProt Q8IZA0) | inactive: -0.034
55 | KCNAB2 (UniProt Q13303) | inactive: -0.026
56 | KAZN isoform 3 (UniProt Q674X7) | inactive: 0.013
57 | KNSTRN (UniProt Q9Y448) | inactive: 0.009
58 | KDM5C (UniProt P41229) | inactive: 0.033
59 | KLC1 isoform 6 (UniProt Q07866) | inactive: 0.024
60 | KBTBD2 (UniProt Q8IY47) | inactive: -0.031
61 | KLHL11 (UniProt Q9NVR0) | inactive: 0.04
62 | KDSR (UniProt Q06136) | inactive: 0.015
63 | KIF5B (UniProt P33176) | inactive: 0.002
64 | KIAA0100 (UniProt Q14667) | inactive: 0
65 | KHSRP (UniProt Q92945) | inactive: -0.01
66 | KCTD9 (UniProt Q7L273) | inactive: -0.015

These targets were tested with CC1=C(C=C(C=C1)NC(=O)C2=CC(=CC=C2)N(C)C)NC(=O)C3=CC=C(C=C3)O in the same assay as above.
Method in brief: as §1

Row | Target | log2 fold change
67 | KATNB1 (UniProt Q9BVA0) | inactive: 0.011
68 | KMT2D isoform 3 (UniProt O14686) | inactive: -0.052
69 | KCMF1 (UniProt Q9P0J7) | inactive: 0.02
70 | JPT1 (UniProt Q9UK76) | inactive: -0.013
71 | JUND (UniProt P17535) | inactive: 0.006
72 | JMJD1C (UniProt Q15652) | inactive: 0.007
73 | KDM8 isoform 3 (UniProt Q8N371) | inactive: 0.005
74 | JAGN1 (UniProt Q8N5M9) | inactive: -0.025
75 | KIDINS220 (UniProt Q9ULH0) | inactive: -0.008
76 | KCTD15 (UniProt Q96SI1) | inactive: 0.084
77 | KCTD3 (UniProt Q9Y597) | inactive: 0.044
78 | KIAA1143 (UniProt Q96AT1) | inactive: -0.051
79 | KHK isoform 2 (UniProt P50053) | inactive: 0.07
80 | KIF23 (UniProt Q02241) | inactive: 0.004
81 | KIAA1522 isoform 2 (UniProt Q9P206) | inactive: -0.047
82 | KLF3 (UniProt P57682) | inactive: 0.148
83 | KIF2A isoform 4 (UniProt O00139) | inactive: -0.046

Row | Target | log2 fold change
84 | KIF5A (UniProt Q12840) | inactive: -0.019
85 | IVNS1ABP (UniProt Q9Y6Y0) | inactive: -0.06
86 | KPNA3 (UniProt O00505) | inactive: 0.003
87 | KIAA0319L (UniProt Q8IZA0) | inactive: 0.023
88 | KCNAB2 (UniProt Q13303) | inactive: 0
89 | KAZN isoform 3 (UniProt Q674X7) | inactive: -0.016
90 | KNSTRN (UniProt Q9Y448) | inactive: -0.018
91 | KDM5C (UniProt P41229) | inactive: -0.116
92 | KLC1 isoform 6 (UniProt Q07866) | inactive: -0.009
93 | KBTBD2 (UniProt Q8IY47) | inactive: -0.002
94 | KLHL11 (UniProt Q9NVR0) | inactive: 0.139
95 | KDSR (UniProt Q06136) | inactive: -0.002
96 | KIF5B (UniProt P33176) | inactive: -0.006
97 | KIAA0100 (UniProt Q14667) | inactive: -0.016
98 | KHSRP (UniProt Q92945) | inactive: -0.001
99 | KCTD9 (UniProt Q7L273) | inactive: 0.001
